Assay results: patent US20110124877A1, “5-BENZYL-4-AZOLYLMETHYL-4-SPIRO[2.4]HEPTANOL DERIVATIVES, METHODS FOR PRODUCING THE SAME, AND AGRO-HORTICULTURAL AGENTS AND INDUSTRIAL MATERIAL PROTECTING AGENTS THEREOF” (KUREHA CORPORATION, priority 2008, published 2011)
Some results were stated once for a whole list of compounds, not compound by compound. Some compounds share one range, which may span the group rather than tell each member.

Tests used:
[1] = system: wheat fusarium blight microorganism (Fusarium graminearum); format: cell-based; details: PDA plate medium, 50 mg/l, 1 to 3 days
[2] = system: rice blast microorganism (Pyricularia oryzae); format: cell-based; details: PDA plate medium, 50 mg/l, 1 to 3 days
[3] = system: wheat powdery mildew microorganism; assay: Wheat powdery mildew preventing effect assay; format: in vivo, Erysiphe graminis f. sp tritici; details: wheat two-leaf phase, 500 mg/L sprayed at 1,000 L/ha, 14 days after inoculation
[4] = system: wheat leaf rust microorganism; assay: Wheat leaf rust preventing effect assay; format: in vivo, Puccinia recondita; details: wheat two-leaf phase, 500 mg/L sprayed at 1,000 L/ha, 9 to 14 days after inoculation
[5] = system: Mucor microorganism (Mucor sp.); assay: Antimicroorganism effect, mycelial extension on PDA plate; format: cell-based; details: PDA plate medium, 50 mg/l, 1 to 3 days
[6] = system: Aureobasidium microorganism (Aureobasidium sp.); assay: as above; format: cell-based; details: PDA plate medium, 50 mg/l, 1 to 3 days
[7] = system: wheat take-all microorganism (Gaeumannomyces graminis); assay: as above; format: cell-based; details: PDA plate medium, 50 mg/l, 1 to 3 days
[8] = system: wheat stagonospora blotch microorganism (Phaeosphaeria nodorum); assay: as above; format: cell-based; details: PDA plate medium, 50 mg/l, 1 to 3 days
[9] = system: penicillium microorganism (Penicillium sp.); assay: as above; format: cell-based; details: PDA plate medium, 50 mg/l, 1 to 3 days
[10] = system: rice seedling blight microorganism (Rhizopus) (Rhizopus oryzae); assay: as above; format: cell-based; details: PDA plate medium, 50 mg/l, 1 to 3 days
[11] = system: barley stripe microorganism (Pyrenophora graminea); assay: as above; format: cell-based; details: PDA plate medium, 50 mg/l, 1 to 3 days
[12] = system: wood denaturing microorganism (Coriolus versicolor); assay: as above; format: cell-based; details: PDA plate medium, 50 mg/l, 1 to 3 days
[13] = system: rice bakanae disease microorganism (Giberella fujikuroi); assay: as above; format: cell-based; details: PDA plate medium, 50 mg/l, 1 to 3 days
[14] = system: citrous blue mold microorganism (Penicillium italicum); assay: as above; format: cell-based; details: PDA plate medium, 50 mg/l, 1 to 3 days
[15] = system: sclerotinia rot microorganism (Sclerotinia sclerotiorum); assay: as above; format: cell-based; details: PDA plate medium, 50 mg/l, 1 to 3 days
[16] = system: sugar beet cercospora leaf spot microorganism (Cercospora beticola); assay: as above; format: cell-based; details: PDA plate medium, 50 mg/l, 1 to 3 days
[17] = system: barley scald microorganism (Rhynchosporium secalis); assay: as above; format: cell-based; details: PDA plate medium, 50 mg/l, 1 to 3 days
[18] = system: cucumber gray mold microorganism; assay: Cucumber gray mold preventing effect assay; format: in vivo, Botrytis cinerea; details: cucumber cotyledon phase, wettable formulation 500 mg/L sprayed at 1,000 L/ha, 4 days after inoculation
Method: The sprayed leaves were air-dried, and loaded with a paper disc (8 mm in diameter) soaked with a spore suspension of a cucumber gray mold microorganism, and kept at 20 degrees C. and a high humidity. 4 Days after inoculation, the cucumber gray mold severity was investigated, and the protective value was calculated by the following equation. [table]

[19] = system: cucumber fusarium wilt microorganism (Fusarium oxysporum); assay: Antimicroorganism effect, mycelial extension on PDA plate; format: cell-based; details: PDA plate medium, 50 mg/l, 1 to 3 days
[20] = system: Curvularia microorganism (Curvularia sp.); assay: as above; format: cell-based; details: PDA plate medium, 50 mg/l, 1 to 3 days
[21] = system: Cladosporium microorganism (Cladosporium sp.); assay: as above; format: cell-based; details: PDA plate medium, 50 mg/l, 1 to 3 days
[22] = system: wheat septoria bloth microorganism (Septoria tritici); assay: as above; format: cell-based; details: PDA plate medium, 50 mg/l, 1 to 3 days
[23] = system: apple alternaria blotch microorganism (Alternaria alternata); assay: as above; format: cell-based; details: PDA plate medium, 50 mg/l, 1 to 3 days
rice plant = assay: Rice growth regulation assay; format: in vivo; details: seed treatment, 36 mg compound per 180 g rice seeds, plant height 20 days after seeding
[24] = system: wheat pink snow mold microorganism (Microdochium nivale); assay: Antimicroorganism effect, mycelial extension on PDA plate; format: cell-based; details: PDA plate medium, 50 mg/l, 1 to 3 days
[25] = system: Aspergillus microorganism (Aspergillus sp.); assay: as above; format: cell-based; details: PDA plate medium, 50 mg/l, 1 to 3 days
[26] = system: ricesheath blight microorganism (Rhizoctonia solani); assay: as above; format: cell-based; details: PDA plate medium, 50 mg/l, 1 to 3 days
[27] = system: Tricoderma microorganism (Trichoderma sp.); assay: as above; format: cell-based; details: PDA plate medium, 50 mg/l, 1 to 3 days
[28] = system: wood denaturing microorganism (Tyromyces palustris); assay: as above; format: cell-based; details: PDA plate medium, 50 mg/l, 1 to 3 days
[29] = system: anthracnose microorganism (Glomerella cingulata); assay: as above; format: cell-based; details: PDA plate medium, 50 mg/l, 1 to 3 days
[30] = system: barley loose smut microorganism (Ustilago nuda); assay: as above; format: cell-based; details: PDA plate medium, 50 mg/l, 1 to 3 days
wheat powdery mildew = assay: Wheat powdery mildew preventing effect by seed treatment; format: in vivo, Erysiphe graminis f. sp tritici; details: 2 mg compound per 1 g wheat seeds, 7, 14, 28 and 56 days after seeding, stems and leaves
[31] = system: gray mold microorganism (Botritis cinerea); assay: Antimicroorganism effect, mycelial extension on PDA plate; format: cell-based; details: PDA plate medium, 50 mg/l, 1 to 3 days
[32] = system: wheat eye spot microorganism (Pseudocercosporella herpotrichoides); assay: as above; format: cell-based; details: PDA plate medium, 50 mg/l, 1 to 3 days

Row | SMILES | growth inhibition grade [1] | growth inhibition grade [2] | protective value [3] [%] | protective value [4] [%] | growth inhibition grade [5] | growth inhibition grade [6] | growth inhibition grade [7] | growth inhibition grade [8] | growth inhibition grade [9] | growth inhibition grade [10] | growth inhibition grade [11] | growth inhibition grade [12] | growth inhibition grade [13] | growth inhibition grade [14] | growth inhibition grade [15] | growth inhibition grade [16] | growth inhibition grade [17] | protective value [18] [%] | growth inhibition grade [19] | growth inhibition grade [20] | further results
1 | OC1(Cn2cncn2)C(Cc2ccc(Cl)cc2)CCC12CC2 (single isomer, unassigned) [Compound I-2, 5-(4-chlorobenzyl)-4-(1H-1,2,4-triazol-1-ylmethyl)-4-spiro[2.4]heptanol] | 5 (% Mycerial extension inhibition of 90% or higher) | 5 (% Mycerial extension inhibition of 90% or higher) |  |  |  |  |  |  |  |  |  |  |  |  |  |  |  |  |  |  | 
2 | OC1(Cn2cncn2)C(Cc2ccc(F)cc2)CCC12CC2 (single isomer, unassigned) [Compound I-8, 5-(4-fluorobenzyl)-4-(1H-1,2,4-triazol-1-ylmethyl)-4-spiro[2.4]heptanol] | 5 (% Mycerial extension inhibition of 90% or higher) | 5 (% Mycerial extension inhibition of 90% or higher) |  |  |  |  |  |  |  |  |  |  |  |  |  |  |  |  |  |  | 
3 | OC1(Cn2cncn2)C(Cc2cccc(Cl)c2)CCC12CC2 (single isomer, unassigned) [Compound I-4, 5-(3-chlorobenzyl)-4-(1H-1,2,4-triazol-1-ylmethyl)-4-spiro[2.4]heptanol] | 5 (% Mycerial extension inhibition of 90% or higher) | 5 (% Mycerial extension inhibition of 90% or higher) |  |  |  |  |  |  |  |  |  |  |  |  |  |  |  |  |  |  | 
4 | OC1(Cn2cncn2)C(Cc2ccc(C(F)(F)F)cc2)CCC12CC2 (centres unmarked) [Compound I-22] | 5 (% Mycerial extension inhibition of 90% or higher) | 5 (% Mycerial extension inhibition of 90% or higher) | ≥ 80 | ≥ 80 | 4 (% Mycerial extension inhibition of less than 90 to 70% or higher) | 4 (% Mycerial extension inhibition of less than 90 to 70% or higher) | 5 (% Mycerial extension inhibition of 90% or higher) | 5 (% Mycerial extension inhibition of 90% or higher) | 5 (% Mycerial extension inhibition of 90% or higher) | 4 (% Mycerial extension inhibition of less than 90 to 70% or higher) | 5 (% Mycerial extension inhibition of 90% or higher) | 5 (% Mycerial extension inhibition of 90% or higher) | 5 (% Mycerial extension inhibition of 90% or higher) | 5 (% Mycerial extension inhibition of 90% or higher) | 5 (% Mycerial extension inhibition of 90% or higher) | 5 (% Mycerial extension inhibition of 90% or higher) | 5 (% Mycerial extension inhibition of 90% or higher) | ≥ 80 | 5 (% Mycerial extension inhibition of 90% or higher) | 4 (% Mycerial extension inhibition of less than 90 to 70% or higher) | growth inhibition grade [21]: 5 (% Mycerial extension inhibition of 90% or higher); growth inhibition grade [22]: 5 (% Mycerial extension inhibition of 90% or higher); growth inhibition grade [23]: 4 (% Mycerial extension inhibition of less than 90 to 70% or higher); growth regulation grade (rice plant): 4 (% Plant height suppression of less than 50 to 30% or higher); growth inhibition grade [24]: 4 (% Mycerial extension inhibition of less than 90 to 70% or higher); growth inhibition grade [25]: 5 (% Mycerial extension inhibition of 90% or higher); growth inhibition grade [26]: 4 (% Mycerial extension inhibition of less than 90 to 70% or higher); growth inhibition grade [27]: 5 (% Mycerial extension inhibition of 90% or higher); growth inhibition grade [28]: 5 (% Mycerial extension inhibition of 90% or higher); growth inhibition grade [29]: 5 (% Mycerial extension inhibition of 90% or higher); growth inhibition grade [30]: 4 (% Mycerial extension inhibition of less than 90 to 70% or higher); Powdery mildew controlling index (wheat powdery mildew): 4 (Protective value of 61 to 80); growth inhibition grade [31]: 5 (% Mycerial extension inhibition of 90% or higher); growth inhibition grade [32]: 5 (% Mycerial extension inhibition of 90% or higher)
5 | OC1(Cn2cncn2)C(Cc2ccc(Cl)cc2Cl)CCC12CC2 (centres unmarked) [Compound I-61] | 5 (% Mycerial extension inhibition of 90% or higher) | 5 (% Mycerial extension inhibition of 90% or higher) | ≥ 80 | ≥ 80 | 4 (% Mycerial extension inhibition of less than 90 to 70% or higher) | 4 (% Mycerial extension inhibition of less than 90 to 70% or higher) | 5 (% Mycerial extension inhibition of 90% or higher) | 5 (% Mycerial extension inhibition of 90% or higher) | 5 (% Mycerial extension inhibition of 90% or higher) | 4 (% Mycerial extension inhibition of less than 90 to 70% or higher) | 5 (% Mycerial extension inhibition of 90% or higher) | 5 (% Mycerial extension inhibition of 90% or higher) | 5 (% Mycerial extension inhibition of 90% or higher) | 5 (% Mycerial extension inhibition of 90% or higher) | 5 (% Mycerial extension inhibition of 90% or higher) | 5 (% Mycerial extension inhibition of 90% or higher) | 5 (% Mycerial extension inhibition of 90% or higher) | ≥ 80 | 5 (% Mycerial extension inhibition of 90% or higher) | 4 (% Mycerial extension inhibition of less than 90 to 70% or higher) | growth inhibition grade [21]: 5 (% Mycerial extension inhibition of 90% or higher); growth inhibition grade [22]: 5 (% Mycerial extension inhibition of 90% or higher); growth inhibition grade [23]: 4 (% Mycerial extension inhibition of less than 90 to 70% or higher); growth regulation grade (rice plant): 4 (% Plant height suppression of less than 50 to 30% or higher); growth inhibition grade [24]: 4 (% Mycerial extension inhibition of less than 90 to 70% or higher); growth inhibition grade [25]: 5 (% Mycerial extension inhibition of 90% or higher); growth inhibition grade [26]: 4 (% Mycerial extension inhibition of less than 90 to 70% or higher); growth inhibition grade [27]: 5 (% Mycerial extension inhibition of 90% or higher); growth inhibition grade [28]: 5 (% Mycerial extension inhibition of 90% or higher); growth inhibition grade [29]: 5 (% Mycerial extension inhibition of 90% or higher); growth inhibition grade [30]: 4 (% Mycerial extension inhibition of less than 90 to 70% or higher); Powdery mildew controlling index (wheat powdery mildew): 4 (Protective value of 61 to 80); growth inhibition grade [31]: 5 (% Mycerial extension inhibition of 90% or higher); growth inhibition grade [32]: 5 (% Mycerial extension inhibition of 90% or higher)
